Assay results published in patent US20020165189.

Tests used:
Test in all cases: enzyme reaction in vitro
[1] = test system: dsRNase activity (T24 cytosolic or nuclear extract) (Homo sapiens); settings: protein in an extract
[2] = molecular target: T1, RNase H (Escherichia coli) (UniProt P0A7Y4); settings: purified recombinant protein
T1 sequence (looked up, limits assumed): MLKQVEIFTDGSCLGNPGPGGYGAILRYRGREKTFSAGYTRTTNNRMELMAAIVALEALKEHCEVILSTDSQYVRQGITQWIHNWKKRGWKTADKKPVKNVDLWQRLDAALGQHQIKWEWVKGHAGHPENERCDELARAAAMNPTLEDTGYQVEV

[3] = test system: cytosolic dsRNase (rat liver) (Rattus); settings: sense: 8-nt PO ribo gap with 2'-OMe PS wings; antisense: 2'-OMe PS wings, 8-nt ribo gap (PO or PS); requires Mg++; several sites in ribo gap; 37 C; 20 mM Tris pH 7.5, 20 mM KCl, 10 mM MgCl2; purified native protein; label: 32P 5' end of sense
[4] = test system: nuclear dsRNase (rat liver) (Rattus); settings: sense: 8-nt PO ribo gap with 2'-OMe PS wings; antisense: 2'-OMe PS wings, 8-nt ribo gap (PO or PS); requires Mg++; less active than cytosolic extract; 37 C; protein in an extract; label: 32P 5' end of …

Question: Which “activity on this sequence” value ([1]; antisense gapmer with 2'-OMe wings, SEQ 8 is printed 3'-5' in Table 1, T24 homogenate, much slower than comparable DNA gapmer, label: 32P on target) does the source give for “AAUGCAUGUCACAGGCGGGA / UCCCGCCUGUGACAUGCAUU [c-Raf RNA gapmer (SEQ 8):RNA duplex]” here?
Answer: less active

Question: How did the “activity on this sequence” value ([2]; antisense: wings flanking 9-nt deoxy gap, cleavage localized to DNA:RNA portion, label: 32P on RNA, variant of Ha-ras 9 RNA gapmer:RNA duplex) turn out when “CCACACCGACGGCGCCC / GGGCGCCGUCGGUGUGG [Ha-ras 9 DNA gapmer:RNA duplex]” was run?
Answer: active

Question: “CCACACCGACGGCGCCC / GGGCGCCGUCGGUGUGG [Ha-ras 9 RNA gapmer with PO gap:RNA duplex]” was tested. Which “activity on this sequence” value ([1]; antisense: 2'-OMe PS wings, 9-nt 2'-OH gap with phosphodiester linkages, antisense strand cleaved in phosphodiester gap, label: 32P on antisense strand, variant of Ha-ras 9 RNA gapmer:RNA duplex) did it give?
Answer: active

Question: With “CCACACCGACGGCGCCC / GGGCGCCGUCGGUGUGG [Ha-ras 9 RNA gapmer:RNA duplex]” as the sequence, how does the “activity on this sequence” value ([1]; antisense: 2'-OMe wings, 9-nt 2'-OH gap, PS throughout, sense unmodified RNA, cleaved within RNA:RNA gap, preferred near 3' end of target, 37 C, nuclear extract comparable, label: 32P 5' end of sense RNA) read?
Answer: active

Question: And the “activity on this sequence” value ([2]; antisense: 2'-OMe wings, 9-nt 2'-OH gap, PS throughout, sense unmodified RNA, not a substrate, label: 32P 5' end of sense RNA)?
Answer: not active

Question: Which “activity on this sequence” value ([2]; antisense strand all deoxy, label: 32P on RNA, DNA:RNA hybrid, variant of Ha-ras 9 RNA gapmer:RNA duplex) does the source give for “CCACACCGACGGCGCCC / GGGCGCCGUCGGUGUGG [Ha-ras full oligodeoxynucleotide:RNA duplex]” here?
Answer: active

Question: “CCGAAUGUGACCGCCUCCCG / CGGGAGGCGGUCACAUUCGG [c-Raf RNA gapmer (SEQ 4):RNA duplex]” was tested. Which “activity on this sequence” value ([1]; antisense gapmer with 2'-OMe wings, SEQ 4 is complementary when read 3'-5', T24 homogenate, no cleavage supported, label: 32P on target) did it give?
Answer: not active

Question: For “GGGCGCCGUCGGUGUGG / CCACACCGACGGCGCCC [Ha-ras dsRNase artificial substrate]”, which “activity on this sequence” value [3] is on record?
Answer: active

Question: What about the “activity on this sequence” value ([1]; sense: 8-nt PO ribo gap with 2'-OMe PS wings, antisense: 2'-OMe PS wings, 8-nt ribo gap (PO or PS), T24 extract cleaved the substrate, label: 32P 5' end of sense) of the same sequence?
Answer: active

Question: And the “activity on this sequence” value [4]?
Answer: active

Question: How did the “activity on this sequence” value ([1]; antisense gapmer with 2'-OMe wings, SEQ 6 is printed 3'-5' in Table 1, T24 homogenate, no cleavage supported, label: 32P on target) turn out when “UCAAUGGAGCACAUACAGGG / CCCUGUAUGUGCUCCAUUGA [c-Raf RNA gapmer (SEQ 6):RNA duplex]” was run?
Answer: not active

For some assays here: A negative result means that nothing was seen under these conditions. For some assays here: Tags and fusion partners may be left off the protein sequences shown. For some assays here: For at least one entry, the source does not settle the construct or the ends of the probe. For some assays here: Weaker means in comparison with the reference protein, sequence or condition of that experiment.
